# Several values for one entry are separate records, joined by “and”; a condition that tells them apart may be missing. Equal values may be shown once. The list shows a part of the results. Further columns of the screen follow, without active or inactive calls. Compounds called inactive in the main read-out are mostly missing here. Words in brackets tell the shape of the fitted curve; partial curves, single points and poor fits give uncertain potencies.
# Assay: Cell signaling CRE-BLA (Fsk stim)
# Conditions: CHO CRE-bla reporter (cAMP response element driving beta-lactamase), forskolin EC10, beta-lactamase ratio; measured here: 460 nm blue channel
# In short: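 CHO CRE-bla cells, overnight plating in Opti-MEM with 0.5% dialyzed FBS; cpd titration + EC10 NKH 477, 3 h 37 °C; CCF4 2 h RT; ex 405/em 460 vs 530 ratio → %Activity, AC50.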
row,SMILES,AC50
1,Cc1c(NC(=O)C(C)OC(=O)c2cc3c4ccccc4n(C)c3s2)c(=O)n(-c2ccccc2)n1C (configuration not stated),"5.01 µM [falling, single point]"
2,COc1ccc(CN=CC2=C(O)CC(C)(C)CC2=O)cc1,"0.316 µM [rising, full curve]"
3,CCOC(=O)c1[nH]c2ccc(OC)cc2c1NC(=O)c1nonc1C,"12.6 µM [rising, partial curve]"
4,O=C(CCCNS(=O)(=O)c1cccs1)N1CCN(c2cccc(Cl)c2)CC1,"15.8 µM [falling, single point]"
5,COc1cc(-c2nnc(-c3ccc(S(=O)(=O)c4ccccc4)cc3)o2)cc(OC)c1OC,"3.16 µM [rising, partial curve]"
6,Cc1ccc(CC(=O)N2CCC(c3nc4c(nnn4Cc4ccccc4)c(=O)[nH]3)CC2)cc1,"7.94 µM [rising, partial curve]"
7,COc1cccc(C(=O)NCC(c2cccnc2)N2CCN(c3ccccc3OC)CC2)c1 (configuration not stated),"12.6 µM [rising, partial curve]"
8,Nc1nc(OCC(F)(F)F)cc(Oc2ccccc2F)n1,"0.316 µM [rising, partial curve, poor fit]"
9,CSc1nc(NCC(C)C)nc(N2CCOCC2)n1,"12.6 µM [rising, single point]"
10,COc1ccc(-c2nnc(SCC(=O)Nc3cc(C)on3)n2C)cc1OC,"10 µM [rising, single point]"
11,N#CCCn1c(=O)c(-c2ccc(Cl)cc2)nc2cnc(OCc3ccccc3)nc21,"7.94 µM [rising, partial curve]"
12,Cc1nc2sc(-c3ccccc3)cc2c(=O)n1-n1cccc1,"5.01 µM [rising, single point]"
13,CCOC(=O)c1c(N)sc2c(OC)c(Br)ccc12,"15.8 µM [rising, partial curve]"
14,CN(C)c1ccc(-c2nc(NC3CCNCC3)c3ccccc3n2)cc1,"10 µM [rising, partial curve]"
15,CCOC(=O)c1c(NC(=O)COC)sc(C(C)=O)c1C,"12.6 µM [rising, partial curve]"
16,COc1ccc(OC)c2[nH]c(=O)c(CCNS(=O)(=O)c3ccc(Cl)cc3)cc12,"10 µM [rising, partial curve, poor fit]"
17,CCOC(=O)C(NC(=O)CC)(Nc1ccc(S(=O)(=O)Nc2onc(C)c2C)cc1)C(F)(F)F (configuration not stated),"0.0631 µM [falling, full curve]"
18,Cc1cc(NCCCN2CCOCC2)n2ncc(-c3ccc(Cl)cc3)c2n1,"2.51 µM [rising, full curve]"
19,COc1ccc(-n2c(=O)c(-c3cn(C)c4ccccc34)nc3cnc(OC)nc32)cc1,"0.126 µM [rising, full curve]"
20,OC1CN=C2CCCc3c2n(c2ccc(Cl)cc32)C1 (configuration not stated),"25.1 µM [rising, single point]"
21,O=C(Nc1ccccc1N1CCCCC1)c1ncoc1-c1ccc(F)cc1,"12.6 µM [rising, single point]"
22,COc1ccc(CCN(C)C(=O)CSc2nccn2C)cc1OC,"10 µM [rising, single point]"
23,CC(=O)Nc1ccc(S(=O)(=O)N(Cc2ccco2)CC2CCCO2)cc1 (configuration not stated),"20 µM [rising, single point]"

# Reprinted from the entries so far, four compounds:
row,SMILES,AC50
5,COc1cc(-c2nnc(-c3ccc(S(=O)(=O)c4ccccc4)cc3)o2)cc(OC)c1OC,"3.16 µM [rising, partial curve]"
6,Cc1ccc(CC(=O)N2CCC(c3nc4c(nnn4Cc4ccccc4)c(=O)[nH]3)CC2)cc1,"7.94 µM [rising, partial curve]"
7,COc1cccc(C(=O)NCC(c2cccnc2)N2CCN(c3ccccc3OC)CC2)c1 (configuration not stated),"12.6 µM [rising, partial curve]"
8,Nc1nc(OCC(F)(F)F)cc(Oc2ccccc2F)n1,"0.316 µM [rising, partial curve, poor fit]"

# The listing continues.

row,SMILES,AC50
1,Cc1nc(SCC(=O)NCc2ccco2)c2c(C)c(C)sc2n1,"2.51 µM [rising, full curve]"
2,CCOC(=O)N1CCC(N2C(=O)c3ccccc3C2Nc2cc(C(=O)OC)cc(C(=O)OC)c2)CC1 (configuration not stated),"10 µM [rising, single point]"
3,O=C1c2ccccc2-c2c1cccc2C(=O)N1CCN(C(=O)c2ccco2)CC1,"1 µM [falling, partial curve]"
4,COc1cc(NS(=O)(=O)c2ccc(C)cc2)c2ncccc2c1,"12.6 µM [rising, partial curve]"
5,O=C(c1ccccc1)N1CCCC(c2nc3c(nnn3Cc3ccccc3)c(=O)[nH]2)C1 (configuration not stated),"10 µM [rising, single point]"
6,O=c1[nH]c(CN2CCc3ccccc32)nc2scc(-c3cccs3)c12,"0.0501 µM [falling, full curve, poor fit]"
7,COc1ccc2c(c1)nc1n2CN(CC2CCCO2)CN1Cc1ccccc1 (configuration not stated),"10 µM [rising, single point]"
8,COC(=O)c1sccc1NC(=O)c1ccco1,"7.94 µM [rising, partial curve]"
9,COc1ccccc1N(CC(=O)NCCSc1ccccc1)S(C)(=O)=O,"0.501 µM [falling, full curve]"
10,COc1cccc2cc(-c3nc(-c4cccs4)cs3)c(=O)oc12,"12.6 µM [rising, partial curve]"
11,O=C(NCc1cccnc1)C1CC(=O)N(C2CCCCC2)C1 (configuration not stated),"0.631 µM [rising, full curve]"
12,N=c1c(S(=O)(=O)c2ccc(Cl)cc2)cc2c(=O)n3ccccc3nc2n1CCN1CCOCC1,"5.01 µM [rising, partial curve]"
13,COC(=O)C1C(=O)C2=C(CC1C)NC(C)=C(C(=O)OCc1ccc(OC)cc1)C2c1ccc(C)o1 (configuration not stated),"10 µM [rising, single point]"
14,COCc1cc(C)nc(Nc2ccccc2C)c1C#N,"12.6 µM [rising, single point]"
15,Cc1cc(C)cc(C(=O)n2cnnc2N)c1,"2.51 µM [falling, partial curve]"
16,O=C(c1ccccc1Cl)N1CCCC(c2nc3c(nnn3Cc3ccccc3)c(=O)[nH]2)C1 (configuration not stated),"10 µM [rising, single point]"
17,Cc1cc(C)c(NC(=O)CS(=O)CC(=O)N2CCN(c3ccccc3)CC2)c(C)c1 (configuration not stated),"20 µM [falling, single point]"
18,COc1cc(NC(=O)c2ccc(S(=O)(=O)N(C)C)cc2)cc(OC)c1OC,"12.6 µM [rising, partial curve]"
19,CCC1CCCCN1Cc1nc2c(c(=O)n(C)c(=O)n2C)n1CC(C)C (configuration not stated),"12.6 µM [rising, single point]"
20,CCNc1ncc2nc(-c3ccc(F)cc3)c(=O)n(CCC#N)c2n1,"3.98 µM [rising, partial curve]"
21,CC(=O)c1c(C)[nH]c(C(=O)NCCc2cccc(C)c2)c1C,"3.98 µM [rising, single point]"
22,O=C(Cc1c[nH]c2ccccc12)Nc1nc2ccccc2[nH]1,"0.126 µM [falling, full curve, poor fit]"
23,CNc1nc(-c2cccc(C#N)c2)nc2ccccc12,"10 µM [rising, single point]"

row,SMILES,AC50
1,COc1ccc(Cl)c(Cn2c(NCC(C)O)nc3c2c(=O)n(C)c(=O)n3C)c1 (configuration not stated),"15.8 µM [rising, partial curve]"
2,O=C(CN1CCN(S(=O)(=O)c2ccc(F)cc2)CC1)Nc1ccc2c(c1)OCCO2,"31.6 µM [falling, partial curve, poor fit]"
3,Cc1ccc(C(=O)/C=C/Nc2ccccc2C(N)=O)o1,"12.6 µM [rising, partial curve]"
4,Cc1sc(NC(=O)c2ccc(Cl)s2)c(C(N)=O)c1C,"25.1 µM [rising, single point]"
5,CCOC(=O)C1=C(N2CCCCC2)c2cc3c(n2C1=O)CCCC3,"10 µM [rising, single point]"
6,CN(C)C(=O)c1ccc(-c2ccc3ncnc(NCc4cccs4)c3c2)cc1,"25.1 µM [rising, single point]"
7,COc1cccc(-n2nnc3c(=O)n(Cc4ccc(F)cc4)cnc32)c1,"12.6 µM [rising, single point]"
8,O=C(c1cc2ccccc2oc1=O)N1CCCN(C(=O)c2cc3ccccc3oc2=O)CC1,"20 µM [falling, partial curve, poor fit]"
9,CN(C)c1ncc2nc(-c3ccc(Cl)cc3)c(=O)n(CCC#N)c2n1,"5.01 µM [rising, partial curve]"
10,Cc1ccc(Cl)cc1N1CCN(C(=O)CCS(=O)(=O)c2cccc3nonc23)CC1,"0.01 µM [falling, full curve, poor fit]"
11,CSCCC(C(=O)Nc1ccc2c(c1)OCO2)N1C(=O)c2ccccc2C1=O (configuration not stated),"0.0251 µM [falling, full curve, poor fit]"
12,Cc1cc(C(=O)Nc2nnc(-c3ccccc3)s2)no1,"0.0794 µM [falling, full curve, poor fit]"
13,Cc1ccc(C(=O)NC2CC3CCCC(C2)N3C(=O)NC2CCCCC2)cc1 (configuration not stated),"3.16 µM [falling, full curve]"
14,Cc1noc(C)c1CSc1nc2ccccc2c(=O)n1-c1ccc(F)cc1F,"10 µM [rising, single point]"
15,N#C/C=C\Oc1ccc(Cl)cc1N,"15.8 µM [falling, partial curve]"
16,CCOC(=O)c1cnc(-n2nc(C)cc2C)nc1Nc1ccc(N(C)C)cc1,"10 µM [rising, single point]"
17,O=C(CCCCC(=O)N1CCN(c2ccccc2)CC1)N1CCN(c2ccccc2)CC1,"0.631 µM [falling, full curve]"
18,CC(NC(=O)c1cc2c(=O)n(C)c3ccccc3c2n1C)c1ccc2c(c1)OCCO2 (configuration not stated),"1 µM [rising, partial curve]"
19,COc1ccc2cnn(CCOc3ccccc3)c(=O)c2c1OC,"12.6 µM [rising, partial curve]"
20,Cc1ccc(-c2c3c(=O)n(C)c(=O)n(C)c3cn2N2CCOCC2)cc1,"12.6 µM [rising, single point]"
21,CC(C)C[C@H]1C(=O)N2CCC[C@@H]2[C@]2(O)O[C@](NC(=O)[C@H]3C=C4c5cccc6[nH]c(Br)c(c56)C[C@H]4N(C)C3)(C(C)C)C(=O)N12,"10 µM [rising, single point] and 10 µM [rising, partial curve]"

# From PubChem BioAssay AID662 (National Center for Advancing Translational Sciences (NCATS), 2007)
